Experiment in all cases: log2 fold change, soluble protein after heating vs DMSO (PISA); higher = thermal stabilisation; K562 lysate, 10 uM; active = over 0.2 and 3.5 SD of the protein, either way, in both replicates (recomputed)
Compound in one assay: CS(=O)(=O)CCNCc1ccc(-c2ccc3ncnc(Nc4ccc(OCc5cccc(F)c5)c(Cl)c4)c3c2)o1 [lapatinib]
Summed up:
(§1)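 K562 pellets were dounce-homogenised in PBS pH 7.4 containing 1 mM MgCl2, and the crude extract, at 1 mg/mL protein, was exposed to 10 μM compound for 30 min. Aliquots were heated for 3 min across 48°C-58°C, pooled, brought to 0.5% NP-40 at 4°C and spun at 21,000xg for 90 min, with the supernatant taken as soluble protein. TMTpro 16plex LC-MS/MS with equalised channel sums quantified that protein. Values are log-two fold changes in thermal stability relative to solvent controls, taken from duplicates.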

By UniProt entry, the sequences of proteins in these tests, tags left out. Where a name states a change or a piece, a line headed by the entry shows the natural chain unless it says otherwise.
UniProt Q8N6N7: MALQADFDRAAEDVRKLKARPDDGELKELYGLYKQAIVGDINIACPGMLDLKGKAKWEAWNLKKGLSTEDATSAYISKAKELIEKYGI
UniProt Q9UKU7: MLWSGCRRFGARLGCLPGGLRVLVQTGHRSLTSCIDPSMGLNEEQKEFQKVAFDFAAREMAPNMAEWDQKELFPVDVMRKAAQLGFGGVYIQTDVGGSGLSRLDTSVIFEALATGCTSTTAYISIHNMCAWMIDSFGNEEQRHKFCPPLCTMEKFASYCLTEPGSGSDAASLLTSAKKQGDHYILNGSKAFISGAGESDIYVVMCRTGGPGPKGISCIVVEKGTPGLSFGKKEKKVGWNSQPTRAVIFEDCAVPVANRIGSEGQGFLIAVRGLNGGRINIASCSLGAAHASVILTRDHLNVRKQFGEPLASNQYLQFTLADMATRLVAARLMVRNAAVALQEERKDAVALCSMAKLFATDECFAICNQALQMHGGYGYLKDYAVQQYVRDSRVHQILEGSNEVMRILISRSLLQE
UniProt Q15027: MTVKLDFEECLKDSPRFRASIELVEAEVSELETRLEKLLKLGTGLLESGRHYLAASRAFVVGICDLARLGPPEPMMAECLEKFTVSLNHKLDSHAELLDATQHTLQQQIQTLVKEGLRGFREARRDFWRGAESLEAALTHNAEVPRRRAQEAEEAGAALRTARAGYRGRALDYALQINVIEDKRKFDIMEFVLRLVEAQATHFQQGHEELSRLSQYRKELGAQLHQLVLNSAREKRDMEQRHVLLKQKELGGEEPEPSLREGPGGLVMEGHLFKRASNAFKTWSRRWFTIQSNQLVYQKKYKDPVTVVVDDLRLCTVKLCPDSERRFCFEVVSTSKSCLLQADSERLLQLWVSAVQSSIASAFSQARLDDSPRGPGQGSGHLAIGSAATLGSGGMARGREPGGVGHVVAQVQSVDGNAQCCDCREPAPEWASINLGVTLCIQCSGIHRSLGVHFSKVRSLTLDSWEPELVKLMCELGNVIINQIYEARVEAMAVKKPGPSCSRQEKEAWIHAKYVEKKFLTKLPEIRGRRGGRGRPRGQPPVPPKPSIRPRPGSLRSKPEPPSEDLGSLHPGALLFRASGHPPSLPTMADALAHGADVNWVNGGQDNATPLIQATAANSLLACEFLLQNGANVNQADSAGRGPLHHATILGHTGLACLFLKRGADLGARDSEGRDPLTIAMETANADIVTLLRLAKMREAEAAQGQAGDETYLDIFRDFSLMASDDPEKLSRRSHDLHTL
UniProt Q5T8D3: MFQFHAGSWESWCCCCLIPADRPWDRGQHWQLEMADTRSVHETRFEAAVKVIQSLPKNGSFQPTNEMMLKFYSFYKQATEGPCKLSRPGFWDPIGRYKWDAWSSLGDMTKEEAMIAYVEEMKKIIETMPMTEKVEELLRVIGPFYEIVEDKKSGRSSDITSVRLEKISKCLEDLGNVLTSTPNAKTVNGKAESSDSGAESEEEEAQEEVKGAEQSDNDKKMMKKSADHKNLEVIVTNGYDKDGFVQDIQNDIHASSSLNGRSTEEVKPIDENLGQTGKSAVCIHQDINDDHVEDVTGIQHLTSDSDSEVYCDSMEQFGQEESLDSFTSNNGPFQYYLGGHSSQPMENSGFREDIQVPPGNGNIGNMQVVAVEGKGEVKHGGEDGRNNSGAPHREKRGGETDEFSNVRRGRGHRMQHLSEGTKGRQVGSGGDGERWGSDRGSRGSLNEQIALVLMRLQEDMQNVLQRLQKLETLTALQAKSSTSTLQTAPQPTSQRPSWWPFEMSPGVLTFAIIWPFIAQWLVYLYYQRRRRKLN
UniProt O15438: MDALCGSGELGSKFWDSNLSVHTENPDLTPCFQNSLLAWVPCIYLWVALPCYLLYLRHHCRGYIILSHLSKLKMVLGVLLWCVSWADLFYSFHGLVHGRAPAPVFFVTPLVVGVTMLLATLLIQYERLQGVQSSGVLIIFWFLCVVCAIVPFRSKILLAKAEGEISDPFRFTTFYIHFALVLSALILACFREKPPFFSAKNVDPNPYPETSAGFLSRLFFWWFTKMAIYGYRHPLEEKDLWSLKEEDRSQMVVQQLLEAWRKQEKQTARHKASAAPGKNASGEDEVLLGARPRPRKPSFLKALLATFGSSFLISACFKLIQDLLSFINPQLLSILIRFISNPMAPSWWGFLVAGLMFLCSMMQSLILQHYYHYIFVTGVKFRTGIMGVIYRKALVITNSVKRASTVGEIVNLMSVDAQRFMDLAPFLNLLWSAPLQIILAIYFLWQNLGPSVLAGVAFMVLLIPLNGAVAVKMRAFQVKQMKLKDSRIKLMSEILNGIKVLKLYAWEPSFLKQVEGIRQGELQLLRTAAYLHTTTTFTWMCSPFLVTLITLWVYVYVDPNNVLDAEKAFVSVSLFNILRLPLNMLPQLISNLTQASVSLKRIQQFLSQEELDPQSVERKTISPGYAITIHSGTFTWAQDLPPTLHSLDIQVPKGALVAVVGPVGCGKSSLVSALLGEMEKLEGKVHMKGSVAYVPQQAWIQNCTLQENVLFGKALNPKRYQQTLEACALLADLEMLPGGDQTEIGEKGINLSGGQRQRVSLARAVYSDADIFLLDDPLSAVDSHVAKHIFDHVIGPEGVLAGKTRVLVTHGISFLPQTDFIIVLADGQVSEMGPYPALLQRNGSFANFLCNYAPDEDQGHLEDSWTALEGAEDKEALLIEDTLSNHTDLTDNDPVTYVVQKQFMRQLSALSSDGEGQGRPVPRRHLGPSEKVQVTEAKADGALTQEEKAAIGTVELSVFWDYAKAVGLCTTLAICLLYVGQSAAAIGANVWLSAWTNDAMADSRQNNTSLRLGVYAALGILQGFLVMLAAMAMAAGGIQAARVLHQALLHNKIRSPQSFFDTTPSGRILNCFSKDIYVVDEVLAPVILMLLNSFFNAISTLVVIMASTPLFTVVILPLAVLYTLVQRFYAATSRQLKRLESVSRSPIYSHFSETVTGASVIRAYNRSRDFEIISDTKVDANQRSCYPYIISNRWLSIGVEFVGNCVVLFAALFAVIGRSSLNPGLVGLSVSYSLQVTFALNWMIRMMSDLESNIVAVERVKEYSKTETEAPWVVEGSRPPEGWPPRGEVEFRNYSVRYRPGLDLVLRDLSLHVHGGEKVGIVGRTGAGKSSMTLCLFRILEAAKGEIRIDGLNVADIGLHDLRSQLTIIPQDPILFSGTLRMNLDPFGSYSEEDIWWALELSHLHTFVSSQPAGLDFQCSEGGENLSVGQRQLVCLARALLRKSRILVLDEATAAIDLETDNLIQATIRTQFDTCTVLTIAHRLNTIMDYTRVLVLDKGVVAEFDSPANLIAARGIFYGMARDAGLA
UniProt Q9UNQ0: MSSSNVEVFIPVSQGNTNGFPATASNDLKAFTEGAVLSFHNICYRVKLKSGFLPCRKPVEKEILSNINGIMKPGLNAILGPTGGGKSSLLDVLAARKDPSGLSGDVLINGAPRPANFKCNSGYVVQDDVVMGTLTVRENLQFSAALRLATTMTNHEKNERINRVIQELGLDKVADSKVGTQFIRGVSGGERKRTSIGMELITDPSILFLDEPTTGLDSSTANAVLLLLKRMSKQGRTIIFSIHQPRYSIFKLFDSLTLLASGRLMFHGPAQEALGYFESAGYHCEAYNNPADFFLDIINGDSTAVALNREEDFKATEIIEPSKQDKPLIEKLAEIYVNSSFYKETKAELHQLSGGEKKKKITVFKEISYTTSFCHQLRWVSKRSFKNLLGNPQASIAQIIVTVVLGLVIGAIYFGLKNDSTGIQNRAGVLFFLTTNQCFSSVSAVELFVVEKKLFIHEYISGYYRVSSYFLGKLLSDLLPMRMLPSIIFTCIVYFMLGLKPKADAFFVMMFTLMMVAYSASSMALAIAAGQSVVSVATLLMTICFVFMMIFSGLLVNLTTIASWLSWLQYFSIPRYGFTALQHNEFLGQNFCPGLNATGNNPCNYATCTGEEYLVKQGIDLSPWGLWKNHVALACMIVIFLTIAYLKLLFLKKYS
UniProt Q5T3U5: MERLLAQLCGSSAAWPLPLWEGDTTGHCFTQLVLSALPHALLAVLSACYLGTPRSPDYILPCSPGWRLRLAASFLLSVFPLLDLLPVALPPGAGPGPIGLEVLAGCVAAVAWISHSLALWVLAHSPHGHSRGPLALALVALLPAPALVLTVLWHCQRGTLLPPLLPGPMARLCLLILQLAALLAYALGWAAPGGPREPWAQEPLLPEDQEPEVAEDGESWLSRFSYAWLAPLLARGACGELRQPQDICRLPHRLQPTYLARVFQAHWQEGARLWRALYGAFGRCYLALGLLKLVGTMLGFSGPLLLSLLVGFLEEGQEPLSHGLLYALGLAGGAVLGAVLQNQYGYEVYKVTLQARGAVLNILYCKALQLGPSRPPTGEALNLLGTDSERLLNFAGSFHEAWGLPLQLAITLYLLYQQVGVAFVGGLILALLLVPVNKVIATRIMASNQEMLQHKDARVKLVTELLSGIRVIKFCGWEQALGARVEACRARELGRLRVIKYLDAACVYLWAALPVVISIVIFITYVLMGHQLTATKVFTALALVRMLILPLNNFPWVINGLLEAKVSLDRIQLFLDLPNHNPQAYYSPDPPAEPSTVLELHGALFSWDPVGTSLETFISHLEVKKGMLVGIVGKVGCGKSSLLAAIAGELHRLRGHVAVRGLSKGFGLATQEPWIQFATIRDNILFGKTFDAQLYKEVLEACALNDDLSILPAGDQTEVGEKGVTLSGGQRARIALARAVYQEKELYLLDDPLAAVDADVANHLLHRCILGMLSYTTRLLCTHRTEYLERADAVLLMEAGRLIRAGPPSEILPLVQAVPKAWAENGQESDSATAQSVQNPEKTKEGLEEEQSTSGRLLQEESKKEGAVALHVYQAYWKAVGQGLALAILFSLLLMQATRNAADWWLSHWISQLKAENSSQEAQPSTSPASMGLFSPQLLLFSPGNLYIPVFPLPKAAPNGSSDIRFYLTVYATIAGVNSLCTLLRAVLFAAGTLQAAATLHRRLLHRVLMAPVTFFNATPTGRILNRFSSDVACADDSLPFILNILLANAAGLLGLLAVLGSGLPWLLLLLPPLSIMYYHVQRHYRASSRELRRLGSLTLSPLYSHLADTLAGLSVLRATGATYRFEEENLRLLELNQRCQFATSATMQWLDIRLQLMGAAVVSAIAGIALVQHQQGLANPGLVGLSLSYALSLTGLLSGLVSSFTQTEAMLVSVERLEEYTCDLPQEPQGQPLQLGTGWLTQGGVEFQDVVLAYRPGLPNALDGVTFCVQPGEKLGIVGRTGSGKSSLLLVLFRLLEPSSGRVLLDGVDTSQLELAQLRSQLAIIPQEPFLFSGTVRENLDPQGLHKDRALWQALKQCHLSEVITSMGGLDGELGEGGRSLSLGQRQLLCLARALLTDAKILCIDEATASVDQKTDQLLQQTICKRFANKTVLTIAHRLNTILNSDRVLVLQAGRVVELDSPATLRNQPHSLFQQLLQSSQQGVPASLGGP
UniProt Q0P651: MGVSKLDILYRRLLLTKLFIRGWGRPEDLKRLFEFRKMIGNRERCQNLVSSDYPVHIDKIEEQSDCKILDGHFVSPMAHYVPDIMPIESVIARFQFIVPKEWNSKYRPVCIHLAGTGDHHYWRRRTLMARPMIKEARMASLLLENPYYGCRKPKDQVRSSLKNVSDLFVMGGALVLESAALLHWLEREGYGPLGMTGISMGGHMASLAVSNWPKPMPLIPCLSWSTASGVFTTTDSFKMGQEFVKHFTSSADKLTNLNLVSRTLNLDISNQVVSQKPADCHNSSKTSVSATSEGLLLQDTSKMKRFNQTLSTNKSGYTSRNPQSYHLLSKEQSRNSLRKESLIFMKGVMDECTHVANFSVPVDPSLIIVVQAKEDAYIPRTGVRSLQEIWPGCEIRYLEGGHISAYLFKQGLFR
UniProt Q6UXT9: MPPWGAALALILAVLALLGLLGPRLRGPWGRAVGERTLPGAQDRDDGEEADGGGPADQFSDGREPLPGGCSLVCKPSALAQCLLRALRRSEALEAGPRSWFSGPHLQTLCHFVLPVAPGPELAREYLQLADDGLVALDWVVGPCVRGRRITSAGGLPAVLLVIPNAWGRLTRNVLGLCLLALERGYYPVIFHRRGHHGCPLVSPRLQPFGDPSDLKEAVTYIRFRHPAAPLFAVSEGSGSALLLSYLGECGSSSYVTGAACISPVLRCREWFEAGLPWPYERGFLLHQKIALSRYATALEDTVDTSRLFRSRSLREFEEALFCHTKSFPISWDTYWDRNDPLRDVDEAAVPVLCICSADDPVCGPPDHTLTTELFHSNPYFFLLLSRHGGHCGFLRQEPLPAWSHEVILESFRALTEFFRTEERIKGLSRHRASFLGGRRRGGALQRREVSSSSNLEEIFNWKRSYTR

Compound in a further assay: C[C@H](Nc1ncnc2nc[nH]c12)c1cc2cccc(Cl)c2c(=O)n1-c1ccccc1 [duvelisib]
Summed up: as §1

Compound in the next assay: Cc1nc(Nc2ncc(C(=O)Nc3c(C)cccc3Cl)s2)cc(N2CCN(CCO)CC2)n1 [dasatinib]
Summed up: as §1

Compound in assay [1]: Cn1cc(-c2ccc3c(c2)CCN3C(=O)Cc2cccc(C(F)(F)F)c2)c2c(N)ncnc21
Summed up: as §1

Compound in assay [2]: NC(=O)c1cnc(N[C@@H]2CCCC[C@@H]2N)nc1Nc1cccc(-n2nccn2)c1
An outline of the steps: as §1

Compound in assay [3]: NC1(c2ccc(-c3nc4ccn5c(=O)[nH]nc5c4cc3-c3ccccc3)cc2)CCC1
An outline of the steps: as §1

Compound in the next assay: CS(=O)(=O)N1CCN(Cc2cc3nc(-c4cccc5[nH]ncc45)nc(N4CCOCC4)c3s2)CC1 [pictilisib]
Summed up:
as §1

Compound in assay [4]: C[C@H](C1=CC=C(C=C1)C(=O)NC2=C3C=CNC3=NC=C2)N
An outline of the steps: as §1

Compound in a further assay: Cc1cc(Nc2cc(CN3CCOCC3)c3nc(C)c(Cc4ccc(Cl)cc4F)n3n2)n[nH]1 [gandotinib]
Summed up: as §1

Compound in another assay: Cc1ccc(NC(=O)c2ccc(CN3CC[C@H](N(C)C)C3)c(C(F)(F)F)c2)cc1Nc1nccc(-c2cncnc2)n1 [bafetinib]
An outline of the steps: as §1

Compound in assay [5]: Cc1cccc(CC(=O)N2CCc3c2ccc(-c2cn(C)c4ncnc(N)c24)c3F)n1
An outline of the steps:
as §1

Compound in the next assay: C[C@@H](Oc1cc(-c2cnn(C3CCNCC3)c2)cnc1N)c1c(Cl)ccc(F)c1Cl [crizotinib]
An outline of the steps:
as §1

Compound in a further assay: Cc1cc(Nc2cc(N3CCN(C)CC3)nc(Sc3ccc(NC(=O)C4CC4)cc3)n2)n[nH]1 [tozasertib]
An outline of the steps:
as §1

Compound in another assay: Cc1ccc(-n2nc(C(C)(C)C)cc2NC(=O)Nc2ccc(OCCN3CCOCC3)c3ccccc23)cc1 [doramapimod]
Summed up: as §1

Compound in the next assay: Cc1cn(-c2cc(NC(=O)c3ccc(C)c(Nc4nccc(-c5cccnc5)n4)c3)cc(C(F)(F)F)c2)cn1 [nilotinib]
Summed up:
as §1

Compound in assay [6]: Cc1nc(Nc2n[nH]c3c2CN(C(=O)N[C@H](CN(C)C)c2ccccc2)C3(C)C)c2sccc2n1
An outline of the steps:
as §1

Compound in assay [7]: Cc1ncc(-c2ccnc(Nc3ccc(S(C)(=O)=O)cc3)n2)n1C(C)C
Summed up:
as §1

Compound in a further assay: Cn1cc(CNCC2CCN(c3ncc(C(=O)NO)cn3)CC2)c2ccccc21 [quisinostat]
An outline of the steps:
as §1

Compound in the next assay: Cn1cncc1[C@@](N)(c1ccc(Cl)cc1)c1ccc2c(c1)c(-c1cccc(Cl)c1)cc(=O)n2C [tipifarnib]
Summed up: as §1

Compound in assay [8]: NC(=O)Nc1cc(-c2cccc(F)c2)sc1C(=O)N[C@H]1CCCNC1
An outline of the steps: as §1

This passage reports log2 fold change results from the supplement of paper PMC10849652.

The other results are listed elsewhere or left out.

As for ACBD7 (UniProt Q8N6N7), the log2 fold change with lapatinib was inactive: -0.119; with duvelisib, inactive: 0.019; in the assay with dasatinib, inactive: 0.021; in assay [1], inactive: -0.063; in [2] it was inactive: -0.094; in assay [3], inactive: 0.013.
As for A0A494C071, A0A494C071, the log2 fold change was inactive: 0.003 with pictilisib; inactive: -0.209 in assay [4]; inactive: 0.107 with duvelisib; inactive: 0.273 in the assay with gandotinib; inactive: -0.34 in the assay with bafetinib; inactive: 0.291 in assay [5]. In addition, the log2 fold change was inactive: -0.238 with dasatinib and inactive: 0.097 in assay [1].
With ACLY isoform 2 (UniProt P53396), the log2 fold change with lapatinib is inactive: 0.012; in the assay with pictilisib, inactive: -0.03; with crizotinib it was inactive: 0.078; in assay [4], active: -0.423; in the assay with gandotinib, inactive: 0.323; in the assay with tozasertib it was inactive: 0.055. The log2 fold change with doramapimod is inactive: -0.119; with bafetinib, inactive: 0.004; in assay [5], inactive: 0.277; in the assay with nilotinib it was inactive: 0.08; in assay [6], inactive: 0.038; in assay [7], inactive: 0.191. For the same target, the log2 fold change was inactive: 0.162 with quisinostat, inactive: 0.02 in the assay with tipifarnib, inactive: -0.027 in assay [8] and inactive: -0.062 in assay [2].
As to A0A494C100, A0A494C100, the log2 fold change with pictilisib is inactive: 0.079; in assay [4] it was inactive: -0.143; with duvelisib, inactive: 0.028; with gandotinib, inactive: -0.162; with bafetinib, inactive: -0.078; in assay [5], inactive: 0.329. Also, the log2 fold change with dasatinib is inactive: 0.038; in assay [1] it was inactive: 0.023.
Take ACAD8 (UniProt Q9UKU7): the log2 fold change in the assay with lapatinib was inactive: 0.115; in the assay with pictilisib it was inactive: -0.153; with crizotinib it was inactive: -0.033; in assay [4], inactive: -0.091; with duvelisib, inactive: -0.021; with gandotinib, inactive: 0.012. Besides, the log2 fold change in the assay with doramapimod is inactive: 0.081; with bafetinib it was inactive: 0.006; in assay [5], inactive: 0.126; with dasatinib, inactive: 0.071; in assay [1] it was inactive: 0.002; with quisinostat, inactive: -0.047. The log2 fold change in assay [8] was inactive: -0.006; in assay [2], inactive: 0.031.
Consider ACAT1, A0A5F9ZHJ0, for which the log2 fold change in [4] is inactive: -0.151; in the assay with gandotinib it was inactive: -0.075; in [5], inactive: 0.208; with nilotinib it was inactive: -0.176; in [6], inactive: 0.063; in assay [7], inactive: 0.024. Also, in the assay with tipifarnib, the log2 fold change is inactive: 0.07.
On to ACAP1 (UniProt Q15027), for which the log2 fold change in the assay with crizotinib is inactive: 0.235; in [4] it was inactive: 0.188; in the assay with gandotinib, inactive: -0.045; in the assay with doramapimod, inactive: 0.042; in [5], inactive: 0.021; with quisinostat it was inactive: -0.121. Besides, in [8], the log2 fold change was inactive: 0.096.
For the target A2ML1 (UniProt A8K2U0), the log2 fold change in the assay with lapatinib is inactive: -0.057; in the assay with pictilisib it was inactive: 0.477; with crizotinib, inactive: 0.006; in [4], inactive: -0.039; in the assay with gandotinib it was inactive: 0.542; with doramapimod, inactive: -0.055. For the same target, the log2 fold change with bafetinib was inactive: 0.067; in [5], inactive: 0.074; with quisinostat, inactive: 0.122; in assay [8] it was inactive: -0.136; in [2], inactive: -0.066; in [3] it was inactive: 0.123.
For ABCC5 (UniProt O15440), the log2 fold change with lapatinib is inactive: 0.013; in the assay with pictilisib it was inactive: 0.13; with crizotinib, inactive: 0.014; in [4] it was inactive: -0.038; with duvelisib, inactive: -0.045; in the assay with gandotinib, inactive: 0.043. For the same target, the log2 fold change with tozasertib was inactive: -0.016; with doramapimod it was inactive: 0.081; with bafetinib, inactive: -0.117; in assay [5], inactive: 0.045; in the assay with dasatinib, inactive: 0.105; in [1], inactive: -0.047. Further, the log2 fold change is inactive: -0.003 in the assay with quisinostat, inactive: 0.035 in assay [8], inactive: -0.035 in assay [2] and inactive: -0.015 in assay [3].
For ACBD5 (UniProt Q5T8D3), the log2 fold change with lapatinib is inactive: 0.022; in [4], inactive: 0.019; with duvelisib it was inactive: -0.054; in the assay with gandotinib it was inactive: 0.02; in assay [5], inactive: 0.243; with dasatinib, inactive: 0.059. Also, the results for the log2 fold change in [1], in [2] and in [3] were inactive: -0.129, inactive: 0.041 and inactive: -0.054, respectively.
With ABCC3 isoform 4 (UniProt O15438), the log2 fold change with lapatinib is inactive: -0.15; in the assay with crizotinib it was inactive: -0.048; with duvelisib, inactive: 0.047; with doramapimod, inactive: -0.01; in the assay with dasatinib it was inactive: -0.056; in assay [1], inactive: -0.021. The log2 fold change in the assay with quisinostat is inactive: -0.005; in assay [8], inactive: 0.015; in [2], inactive: 0.05.
With ABCG2 (UniProt Q9UNQ0), the log2 fold change in assay [4] is inactive: -0.019; with gandotinib, inactive: -0.003; in assay [5], inactive: 0.174.
Regarding ABCC10 (UniProt Q5T3U5), the log2 fold change is inactive: -0.126 in assay [4]; inactive: -0.156 in the assay with duvelisib; inactive: 0.048 with gandotinib; inactive: -0.02 in assay [5]; inactive: 0.209 with nilotinib; inactive: 0.02 in [6]. For the same target, the log2 fold change with dasatinib was inactive: 0.082; in assay [7], inactive: 0.094; in assay [1], inactive: 0.02; with tipifarnib it was inactive: -0.008; in assay [3], inactive: -0.054.
For the target ABI1 isoform 6 (UniProt Q8IZP0), the log2 fold change in the assay with lapatinib was inactive: 0.007; with tozasertib, inactive: -0.061; in [2] it was inactive: 0.113.
With ABHD18 (UniProt Q0P651), the log2 fold change was inactive: -0.019 in the assay with tozasertib; inactive: -0.222 with nilotinib; inactive: 0.163 in assay [6]; inactive: 0.086 in assay [7]; inactive: 0.195 with tipifarnib; inactive: 0.101 in assay [3].
For the target ABHD15 (UniProt Q6UXT9), the log2 fold change was inactive: -0.075 with lapatinib; inactive: -0.088 in [4]; inactive: 0.093 in the assay with gandotinib; inactive: 0.054 with tozasertib; inactive: 0.045 in assay [5]; inactive: -0.014 in assay [2]. Further, in [3], the log2 fold change was inactive: 0.016.
